Data as given in PubChem BioAssay AID662 (National Center for Advancing Translational Sciences (NCATS), 2007).
Where “and” joins values, the source holds several entries; their conditions need not be identical. Identical values can stand only once. This is one part of the list. These are further read-outs of the screen, such as a control signal, another cell line or another target. No call is given for them. Compounds called inactive in the main read-out are mostly missing here. The note in brackets gives the kind of curve behind each potency; many fits are weak.

Assay: Cell signaling CRE-BLA (Fsk stim)
Conditions: CHO CRE-bla reporter (cAMP response element driving beta-lactamase), forskolin EC10, beta-lactamase ratio; measured here: 460 nm blue channel
Summary of the method: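 qHTS titration format; CRE-bla CHO reporter; stimulus EC10 NKH 477, a water-soluble forskolin. Read: CCF4 460/530 nm ratio. Potency expressed as AC50 for activators or inhibitors.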

Row | Structure (SMILES) | AC50
1 | CC(C)OCCCNC(=O)c1cc2c(=O)n(C)c3ccccc3c2n1C | 2.51 µM [rising, full curve]
2 | CC(C)(C)Cc1nnc(NS(=O)(=O)Cc2ccccc2)s1 | 0.00316 µM [falling, full curve, poor fit]
3 | CCCCc1c(O)nc(SCC(=O)NCC2CCCO2)[nH]c1=O (stereo unspecified) | 1.58 µM [falling, full curve, poor fit]
4 | Cc1sc2c(c1C)c(=O)n(-c1ccccc1)c1nncn21 | 12.6 µM [rising, partial curve]
5 | COc1ccc(Cn2c(-c3ccco3)nc3oc4ccccc4c(=O)c3c2=O)cc1 | 31.6 µM [falling, single point]
6 | CC(=O)NCCN=C(C)c1sc2ccccc2c1O | 10 µM [rising, single point]
7 | O=C(CCc1nc(-c2cccs2)no1)Nc1cnc2ccccc2c1 | 0.1 µM [rising, full curve, poor fit]
8 | CCOC(=O)c1cnc(-n2cc(C)cn2)nc1Nc1ccccc1OC | 0.398 µM [rising, full curve]
9 | Cn1c(=O)c2[nH]cnc2n(-c2ccccc2)c1=O | 12.6 µM [rising, partial curve]
10 | COc1ccc(CCNC(=O)C2CCN(S(=O)(=O)c3cccc4nonc34)CC2)cc1OC | 0.501 µM [falling, full curve]
11 | CCCCC(=O)Nc1ccc(NC(=O)c2cc(OC)c(OC)c(OC)c2)cn1 | 10 µM [rising, partial curve]
12 | CCn1c(=O)cc(OCC(=O)NCc2ccc(C)o2)c2ccccc21 | 7.94 µM [rising, partial curve]
13 | CCc1ccc(CN2C(=O)CCC2(C)C(=O)NC2CCCC2)cc1 (stereo unspecified) | 0.316 µM [rising, single point]
14 | COCCCNC(=O)CCCC(=O)NCCCOC | 3.98 µM [falling, single point]
15 | CCCCN(C)C(=O)CCC(=O)Nc1ccc2nc(N3CCOCC3)cc(C)c2c1 | 20 µM [rising, single point]
16 | CCn1c(=O)c2c(n3cnnc13)-c1ccccc1CC21CCCCC1 | 2.51 µM [rising, full curve]
17 | COC(=O)c1[nH]c2cc(OC)ccc2c1NC(=O)CN1CCOCC1 | 12.6 µM [rising, single point]
18 | COc1ccc(C2=NOC(C(=O)NCCCN3CCOCC3)C2)cc1 (stereo unspecified) | 0.1 µM [rising, full curve, poor fit]
19 | CCCn1c(C)nc2c(NCCCCN(CC)CC)nc(C)nc21 | 10 µM [rising, partial curve]
20 | CCOC(=O)Cn1c(=O)c2c(nc3n2CCN3c2ccc(C)cc2)n(C)c1=O | 15.8 µM [rising, partial curve]
21 | COc1cccc(Cn2c(=O)c(CCc3ccccc3)nc3cnc(N(C)C)nc32)c1 | 7.94 µM [rising, partial curve]
22 | COc1ccccc1-c1nc(NCCc2cnc[nH]2)c2ccccc2n1 | 12.6 µM [rising, single point]

Row | Structure (SMILES) | AC50
23 | Cc1csc(NC(=O)CSc2nc3sc(C)c(C)c3c(=O)[nH]2)n1 | 2.51 µM [rising, single point]
24 | O=c1cc(-c2ccc(O)cc2)oc2cc(O)cc(O)c12 | 12.6 µM [falling, single point] and 12.6 µM [falling, partial curve] and 25.1 µM [falling, single point]
25 | CCCCC(CC)CNS(=O)(=O)c1ccc2c(c1)CCN2C(=O)CCC(=O)O (stereo unspecified) | 0.00398 µM [falling, full curve, poor fit]
26 | O=c1c2c3nc4ccccc4nc3n(-c3ccc4c(c3)OCCO4)c2ncn1C1CCCC1 | 15.8 µM [rising, single point]
27 | Cc1cnc(CNc2ncncc2-c2ccc3c(c2)OCO3)cn1 | 5.01 µM [rising, single point]
28 | COc1ccc(CNc2ncnc3ccc(-c4ccc(N(C)C)cc4)cc23)c(OC)c1 | 10 µM [rising, partial curve]
29 | Clc1ccccc1C1=Nn2c(nnc2-c2ccncc2)SC1 | 6.31 µM [falling, partial curve]
30 | O=C(c1cc2nc(-c3ccccc3)cc(-c3ccccc3)n2n1)N1CCN(C(=O)c2ccco2)CC1 | 1.58 µM [rising, full curve]
31 | CC1=C(C(=O)OCc2ccccc2)C(c2ccc(C(C)(C)C)cc2)NC(=O)N1CCCCCC(=O)O (stereo unspecified) | 7.94 µM [rising, partial curve]
32 | COc1cc(Br)cc(/C=N/c2ncn[nH]2)c1O | 0.00398 µM [falling, full curve, poor fit]
33 | COc1ccccc1NC(=O)CN1CCN(CC(=O)Nc2ccc(Cl)c(C(F)(F)F)c2)CC1 | 0.0251 µM [rising, full curve, poor fit]
34 | COc1cc(NC(=O)CN2CCN(S(=O)(=O)c3ccc(C(C)C)cc3)CC2)cc(OC)c1 | 3.98 µM [rising, full curve]
35 | O=C(CCCc1nc(-c2ccccc2)no1)Nc1cccnc1 | 0.2 µM [rising, single point]
36 | COc1ccc(CCNc2oc(Cc3ccccc3)nc2C#N)cc1OC | 25.1 µM [rising, single point]
37 | O=C(Cn1nnc(-c2ccccc2)n1)Nc1ccccc1N1CCOCC1 | 15.8 µM [rising, single point]
38 | c1ccc2c(c1)oc1c(Nc3ccc(CN4CCOCC4)cc3)ncnc12 | 25.1 µM [falling, single point]
39 | Cc1cc(C)n(C(=O)c2cccc(S(=O)(=O)N3CCOCC3)c2)n1 | 0.00631 µM [falling, full curve, poor fit]
40 | CCCc1[nH]nc2c1C(c1ccncc1)C(C#N)=C(N)O2 (stereo unspecified) | 0.0398 µM [falling, full curve]
41 | COc1ccc(-c2ccc(SCC(=O)N3CCOCC3)nn2)cc1OC | 12.6 µM [rising, partial curve]
42 | Cc1cc2oc(C(=O)N(Cc3ccco3)C3CCS(=O)(=O)C3)cc(=O)c2cc1Cl (stereo unspecified) | 12.6 µM [rising, single point]
43 | Cc1onc(-c2ccccc2)c1C(=O)NC(CC(=O)O)c1ccc(OC(C)C)cc1 (stereo unspecified) | 20 µM [falling, partial curve, poor fit]
44 | COc1ccc2cc3cc(C(=O)Nc4ccc5c(c4)OCCO5)oc3nc2c1 | 0.0631 µM [rising, full curve, poor fit]

Row | Structure (SMILES) | AC50
45 | Cc1ccc(S(=O)(=O)N(Cc2nccn2C)C(C)C)cc1 | 3.16 µM [falling, full curve, poor fit]
46 | CCOC(=O)C1CCN(C(=O)c2cn(C)c(=O)c3cc(OC)c(OC)cc23)CC1 | 10 µM [rising, partial curve]
47 | CCOc1ccccc1NC(=O)Cn1nnc(C(=O)Nc2ccccc2Cl)c1N | 1.58 µM [rising, full curve]
48 | CCCCn1c(CN2CCN(C(=O)OCC)CC2)nc2c1c(=O)[nH]c(=O)n2C | 0.0794 µM [rising, full curve, poor fit]
49 | CCC(C)(C)n1nnnc1C(c1cc2cc(OC)c(OC)cc2[nH]c1=O)N1CCc2ccccc21 (stereo unspecified) | 12.6 µM [rising, single point]
50 | CCN(CC)CCCC(C)n1c(-c2ccccc2)nc2c(NCCO)nc(C)nc21 (stereo unspecified) | 2.51 µM [rising, partial curve]
51 | CCSc1nnc(NC(=O)CSc2nc(CC)nc3c2c(=O)n(C)c(=O)n3C)s1 | 2.51 µM [rising, full curve]
52 | COc1cc(Cn2c(=O)oc3ccc(C)cc32)ccc1OC(C)C | 7.94 µM [rising, partial curve]
53 | N#CCCn1c(=O)c(-c2ccc(F)cc2)nc2cnc(N3CCNCC3)nc21 | 7.94 µM [rising, partial curve]
54 | Cc1ccc(-n2c(=O)c(C#N)cc3c(=O)n4ccccc4nc32)cc1 | 3.98 µM [rising, partial curve]
55 | Cc1nc2cnc(N(C)C)nc2n(C2CC2)c1=O | 10 µM [rising, partial curve]
56 | Cc1ccc(-n2c(C)cc(C(=O)CSc3nnnn3C)c2C)cc1 | 25.1 µM [rising, single point]
57 | Cc1ccc(C)c(Cn2c(=O)n(CCC(=O)NCc3ccco3)c(=O)c3sccc32)c1 | 12.6 µM [rising, single point]
58 | CCc1ccccc1N1CC(C(=O)O)CC1=O (stereo unspecified) | 2.51 µM [rising, full curve]
59 | CCOc1ccccc1N1CSC2=C(C#N)C(c3c(OC)ccc4ccccc34)CC(=O)N2C1 (stereo unspecified) | 10 µM [falling, single point]
60 | COc1ccc(-c2nnc3sc(-c4cccs4)nn23)cc1OC | 5.01 µM [rising, partial curve]
61 | O=C(O)c1cccc(NC(=O)C23CC4CC(C2)CC(n2cnc(Cl)n2)(C4)C3)c1 | 0.251 µM [falling, full curve]
62 | Cc1cccn2c(=O)c3cc(C(=O)NCc4ccccn4)n(C)c3nc12 | 2.51 µM [rising, full curve]
63 | O=C(Nc1ccccc1NC(=O)c1c(F)c(F)c(F)c(F)c1F)c1c(F)c(F)c(F)c(F)c1F | 12.6 µM [falling, single point]
64 | O=C(Cc1ccccc1)N1CCCC1c1ccccc1 (stereo unspecified) | 2.51 µM [falling, partial curve]
65 | OC[C@@H]1O[C@@H](n2cnc3c(NCc4ccco4)ncnc32)[C@H](O)[C@H]1O | 5.01 µM [rising, full curve, poor fit]
66 | COc1ccc2nc(NC(=O)CSc3nc4cccnc4n3C)sc2c1 | 0.398 µM [rising, full curve]
